Results deposited as PubChem BioAssay AID743121 (NCATS, 2013)

Screen: 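Knock-downs that sensitise breast cancer cells to camptothecin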 (primary screen)
Cell system: MDA-MB-231 cells, a human breast cancer line
Reagent: single siRNA against human genes, 20 nM siRNA (0.8 pmol per well)
Time to read-out: 120 h (drug added 48 h after transfection, read 72 h later)
Challenge: camptothecin 20 nM (about EC30) for 72 h; vehicle 0.1% DMSO in parallel plates
Detection: 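CellTiter-Glo ATP signal, scaled to control siRNA as percent viability; sensitisation given as log2 of untreated divided by camptothecin-treated viability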
Reading the numbers: log2 vehicle/camptothecin viability: higher = stronger sensitisation to camptothecin
Call rule: 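Active genes have an RSA gene-level p-value below 0.001, computed from the ratios of their separate siRNAs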
This is a random part of about 26,000 reagents tested. 167 of all reagents (0.63%) were called active. 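Calls are per gene from RSA p-values that are not deposited; an individual active-marked siRNA can sensitise only weakly.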 A number with no mark means an inactive call. The numbers tell different reagents against one gene apart. Not all columns of the deposit are shown.

RXRB #1 — log2 vehicle/camptothecin viability = -0.232
RXRB #2 — log2 vehicle/camptothecin viability = -0.117
RXRB #3 — log2 vehicle/camptothecin viability = -0.287
RXRB #4 — log2 vehicle/camptothecin viability = 0.172
MBD3 #1 — log2 vehicle/camptothecin viability = -0.344
MBD3 #2 — log2 vehicle/camptothecin viability = -0.47
MBD3 #3 — log2 vehicle/camptothecin viability = 0.295
MBD3 #4 — log2 vehicle/camptothecin viability = -0.289
HSD17B7 #1 — log2 vehicle/camptothecin viability = 0.173
HSD17B7 #2 — log2 vehicle/camptothecin viability = 0.107
HSD17B7 #3 — log2 vehicle/camptothecin viability = -0.417
HSD17B7 #4 — log2 vehicle/camptothecin viability = -0.0391
HSD17B7 #5 — log2 vehicle/camptothecin viability = 0.11
ALDOA #1 — log2 vehicle/camptothecin viability = -0.198
ALDOA #2 — log2 vehicle/camptothecin viability = -0.683
ALDOA #3 — log2 vehicle/camptothecin viability = 0.216
ALDOA #4 — log2 vehicle/camptothecin viability = -0.911
HMGCL #1 — log2 vehicle/camptothecin viability = -0.0231
HMGCL #2 — log2 vehicle/camptothecin viability = 0.0054
HMGCL #3 — log2 vehicle/camptothecin viability = 0.111
HMGCL #4 — log2 vehicle/camptothecin viability = -0.332

As entered above:
Under “log2 vehicle/camptothecin viability”, MBD3 #4 reads -0.289
Under “log2 vehicle/camptothecin viability”, HSD17B7 #1 is entered as 0.173
HSD17B7 #3, log2 vehicle/camptothecin viability → -0.417
Entry of RXRB #4 in “log2 vehicle/camptothecin viability”: 0.172
Result of ALDOA #3 in “log2 vehicle/camptothecin viability”: 0.216
Value of HMGCL #4 in “log2 vehicle/camptothecin viability”: -0.332

The list goes on.
THBS3 #1 — log2 vehicle/camptothecin viability = 0.927
THBS3 #2 — log2 vehicle/camptothecin viability = 0.237
THBS3 #3 — log2 vehicle/camptothecin viability = -0.519
THBS3 #4 — log2 vehicle/camptothecin viability = -0.294
MMP17 #1 — log2 vehicle/camptothecin viability = -0.424
MMP17 #2 — log2 vehicle/camptothecin viability = 0.00192
MMP17 #3 — log2 vehicle/camptothecin viability = 0.473
MMP17 #4 — log2 vehicle/camptothecin viability = -0.378
NETO2 #1 — log2 vehicle/camptothecin viability = 0.0256
NETO2 #2 — log2 vehicle/camptothecin viability = -0.0865
NETO2 #3 — log2 vehicle/camptothecin viability = -0.0904
NETO2 #4 — log2 vehicle/camptothecin viability = -0.0836
FOXRED2 #1 — log2 vehicle/camptothecin viability = -0.511
FOXRED2 #2 — log2 vehicle/camptothecin viability = -0.142
FOXRED2 #3 — log2 vehicle/camptothecin viability = 0.314
